{"sequences": {"note": "Sequences of proteins named here, by UniProt entry; tags and fusion partners are left off. Residues count along the entry.", "UniProt P49238": "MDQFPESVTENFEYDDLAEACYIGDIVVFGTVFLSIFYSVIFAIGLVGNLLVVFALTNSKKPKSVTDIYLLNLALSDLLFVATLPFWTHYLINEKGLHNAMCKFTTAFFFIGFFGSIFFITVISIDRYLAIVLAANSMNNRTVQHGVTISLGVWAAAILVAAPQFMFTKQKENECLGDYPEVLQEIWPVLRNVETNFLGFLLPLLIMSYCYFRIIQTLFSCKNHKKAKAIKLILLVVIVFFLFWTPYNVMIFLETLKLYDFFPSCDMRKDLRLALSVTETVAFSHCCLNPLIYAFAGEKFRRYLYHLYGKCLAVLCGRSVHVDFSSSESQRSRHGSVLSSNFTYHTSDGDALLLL", "UniProt P78423, residues 25-100": "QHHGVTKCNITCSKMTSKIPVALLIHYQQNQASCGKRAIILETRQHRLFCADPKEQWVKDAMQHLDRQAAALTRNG"}, "source": "patent US12037382", "key": {"[1]": {"target": "human receptor CX3CR1 (human) (UniProt P49238)", "test": "125I-CX3CL1 on CX3CR1-expressing HEK293T membranes"}, "[2]": {"target": "human receptor CX3CR1 (human) (UniProt P49238)", "test": "binding of 125I-CX3CL1 to CX3CR1-expressing HEK293T membranes and its displacement by unlabeled CX3CL1"}}, "note": "These are yes or no findings as the source states them, for the method shown. Some entries that bind do so weakly or less than the wild type.", "data": [{"substance": "human chemokine CX3CL1 (from UniProt P78423 25-100) (ligand)", "values": [{"measurement": "binding", "setting": "[1]", "result": "binds"}, {"measurement": "binding", "setting": "[2]", "result": "binds"}]}]}
